# Experimental data: PubChem BioAssay AID652259 (Drosophila RNAi Screening Center, 2013)
# Aim: 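Identify new Wingless signalling regulators in fly cells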 (primary screen)
# Cell system: Drosophila clone 8 imaginal disc epithelial cells
# Reagents: long dsRNA against Drosophila genes
# Conditions: pathway stimulated by co-transfected Wingless expression plasmid
# Measured: 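Dual luciferase reads per well after Wingless plasmid stimulation: reporter firefly light and Renilla control light; activity is firefly divided by Renilla, a ratio not deposited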
# Scale: firefly reporter light: higher = more Wg reporter light, before normalisation; Renilla control light: higher = more transfected or surviving cells
# Call rule: 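a knock-down is a candidate when at least two out of four statistical tests show it departing from its plate mean; one test alone signals a weak candidate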
# Calls: active = candidate regulator (raises or lowers reporter); inactive = not a candidate
# In all, the deposit lists about 22,000 reagents; this is an unselected part of those with a known target gene and a result. Of all reagents, 233 (1.1%) got an active call. 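Light values are raw, unnormalised plate reads; the ratio scores behind the reporter calls were not deposited.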 Reagent sequences are not shown. The record does not give: the amount of reagent, the time to read-out, the dose of the treatment.
gene,amplicon,"firefly reporter light, replicate 1","firefly reporter light, replicate 2","Renilla control light, replicate 1","Renilla control light, replicate 2",Outcome
Kyat (GeneID 41433),DRSC16147,12156,,2836,,inactive
CG1231 (GeneID 38060),DRSC08267,4320,,3100,,inactive
CG31207 (GeneID 326125),DRSC21886,4.84e5,5.63e5,1.77e5,2.35e5,inactive
CG14355 (GeneID 41723),DRSC14818,7037,,3955,,inactive
Srg3 (GeneID 39092),DRSC08984,4934,,858,,inactive
Srg3 (GeneID 39092),DRSC10178,6168,,3282,,inactive
CG14861 (GeneID 41810),DRSC14984,9392,,1936,,inactive
qvr (GeneID 2768718),DRSC05280,16354,,13412,,inactive
CG34247 (GeneID 5740480),DRSC09933,8981,,4573,,inactive
RhoGAP102A (GeneID 43781),DRSC17110,2572,,1203,,inactive
RhoGAP102A (GeneID 43781),DRSC17145,21922,,13217,,inactive
CCHa2-R (GeneID 35535),DRSC04825,21559,,8202,,inactive
CCHa2-R (GeneID 35535),DRSC04870,2533,8537,837,2866,inactive
CCHa2-R (GeneID 35535),DRSC04871,2957,8618,711,3132,inactive
ND-B12 (GeneID 37466),DRSC04060,2044,5200,626,1840,inactive
CG15019 (GeneID 38542),DRSC08473,1661,10608,1309,3667,inactive
Cyp6u1 (GeneID 35608),DRSC05015,9843,,3033,,inactive
rnh1 (GeneID 35746),DRSC07673,2465,7920,743,2832,inactive
Apc2 (GeneID 42871),DRSC14115,1824,5996,908,2131,inactive
CG13038 (GeneID 50268),DRSC09919,10646,,4995,,inactive
CG30002 (GeneID 246384),DRSC05182,13707,,7828,,inactive
Mettl2 (GeneID 38197),DRSC08398,10313,,3041,,inactive
Cul5 (GeneID 43434),DRSC14723,8733,,3296,,inactive
srl (GeneID 40562),DRSC12340,23480,,4841,,inactive
Phb2 (GeneID 46038),DRSC06512,4602,,1157,,inactive
CG13048 (GeneID 39789),DRSC09929,7469,,2076,,inactive
udt (GeneID 42809),DRSC14214,14600,,12514,,inactive
mIF2 (GeneID 43382),DRSC14510,7367,,3320,,inactive
Cyp312a1 (GeneID 40005),DRSC11128,5012,,2547,,inactive
